log2 fold change data for 14 targets are collected here from the supplement of paper PMC10849652.

By UniProt entry, the sequences of proteins in these tests, tags left out. Where a name states a change or a piece, a line headed by the entry shows the natural chain unless it says otherwise.
UniProt O75030: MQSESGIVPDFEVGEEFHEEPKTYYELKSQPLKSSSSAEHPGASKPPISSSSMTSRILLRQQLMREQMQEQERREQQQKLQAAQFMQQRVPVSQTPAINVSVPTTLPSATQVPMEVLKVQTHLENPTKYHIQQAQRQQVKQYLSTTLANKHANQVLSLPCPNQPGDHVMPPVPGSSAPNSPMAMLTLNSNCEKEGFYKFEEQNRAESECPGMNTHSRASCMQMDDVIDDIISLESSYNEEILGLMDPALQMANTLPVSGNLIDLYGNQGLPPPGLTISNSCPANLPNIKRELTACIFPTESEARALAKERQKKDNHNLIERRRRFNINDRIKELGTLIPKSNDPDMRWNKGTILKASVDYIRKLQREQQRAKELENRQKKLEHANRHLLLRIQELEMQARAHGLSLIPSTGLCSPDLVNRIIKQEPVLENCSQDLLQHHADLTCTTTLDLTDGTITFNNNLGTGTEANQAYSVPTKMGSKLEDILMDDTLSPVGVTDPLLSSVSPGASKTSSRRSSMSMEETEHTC
UniProt Q8TDZ2: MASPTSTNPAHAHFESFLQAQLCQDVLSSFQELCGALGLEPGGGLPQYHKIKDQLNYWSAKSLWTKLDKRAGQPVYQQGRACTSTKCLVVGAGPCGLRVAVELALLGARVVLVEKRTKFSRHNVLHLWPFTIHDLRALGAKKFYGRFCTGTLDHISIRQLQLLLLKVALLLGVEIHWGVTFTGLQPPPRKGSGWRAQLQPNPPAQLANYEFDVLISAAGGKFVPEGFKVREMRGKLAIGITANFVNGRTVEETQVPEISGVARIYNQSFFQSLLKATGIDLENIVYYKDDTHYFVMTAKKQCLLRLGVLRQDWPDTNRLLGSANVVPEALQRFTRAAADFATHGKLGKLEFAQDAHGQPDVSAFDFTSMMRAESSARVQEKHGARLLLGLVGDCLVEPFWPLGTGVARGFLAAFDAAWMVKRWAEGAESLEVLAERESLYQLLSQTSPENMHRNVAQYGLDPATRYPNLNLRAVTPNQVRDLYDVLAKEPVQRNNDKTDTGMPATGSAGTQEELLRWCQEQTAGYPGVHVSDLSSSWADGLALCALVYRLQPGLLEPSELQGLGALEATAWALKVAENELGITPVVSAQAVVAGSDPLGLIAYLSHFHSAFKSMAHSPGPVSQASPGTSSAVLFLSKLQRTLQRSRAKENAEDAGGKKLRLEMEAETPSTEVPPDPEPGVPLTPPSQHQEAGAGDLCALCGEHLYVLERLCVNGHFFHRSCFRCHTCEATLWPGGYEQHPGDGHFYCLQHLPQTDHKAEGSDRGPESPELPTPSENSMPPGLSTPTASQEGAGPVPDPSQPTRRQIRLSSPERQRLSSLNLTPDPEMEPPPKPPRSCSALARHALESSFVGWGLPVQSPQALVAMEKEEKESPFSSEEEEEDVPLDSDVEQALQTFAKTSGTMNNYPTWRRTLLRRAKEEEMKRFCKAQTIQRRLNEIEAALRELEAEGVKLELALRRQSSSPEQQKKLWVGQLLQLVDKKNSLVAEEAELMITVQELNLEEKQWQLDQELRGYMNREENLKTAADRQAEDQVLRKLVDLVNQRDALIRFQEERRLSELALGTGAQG
UniProt Q9UHC7: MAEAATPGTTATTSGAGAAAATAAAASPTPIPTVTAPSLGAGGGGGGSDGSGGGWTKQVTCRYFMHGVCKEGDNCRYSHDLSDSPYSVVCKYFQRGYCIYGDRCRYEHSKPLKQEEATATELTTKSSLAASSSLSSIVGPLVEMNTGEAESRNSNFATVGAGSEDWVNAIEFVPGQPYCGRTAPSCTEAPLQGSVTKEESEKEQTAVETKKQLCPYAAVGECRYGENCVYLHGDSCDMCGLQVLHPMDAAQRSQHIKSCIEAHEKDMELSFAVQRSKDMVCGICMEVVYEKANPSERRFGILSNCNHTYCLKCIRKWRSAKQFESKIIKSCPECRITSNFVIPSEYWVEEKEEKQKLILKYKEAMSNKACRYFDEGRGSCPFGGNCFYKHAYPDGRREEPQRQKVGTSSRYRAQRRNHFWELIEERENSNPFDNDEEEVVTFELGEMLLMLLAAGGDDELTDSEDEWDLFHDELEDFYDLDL
UniProt Q8IVH4: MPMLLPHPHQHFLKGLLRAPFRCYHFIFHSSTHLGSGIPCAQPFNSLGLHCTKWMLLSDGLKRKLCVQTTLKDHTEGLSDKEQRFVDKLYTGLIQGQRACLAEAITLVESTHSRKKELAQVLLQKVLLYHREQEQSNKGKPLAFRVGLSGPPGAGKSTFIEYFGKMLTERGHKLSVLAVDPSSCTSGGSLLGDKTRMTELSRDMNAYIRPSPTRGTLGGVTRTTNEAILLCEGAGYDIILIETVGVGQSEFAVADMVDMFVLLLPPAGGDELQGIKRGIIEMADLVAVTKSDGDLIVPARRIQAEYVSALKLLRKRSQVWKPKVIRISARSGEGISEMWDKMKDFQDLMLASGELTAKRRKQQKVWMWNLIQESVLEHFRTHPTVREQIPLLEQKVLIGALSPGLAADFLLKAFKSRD
UniProt O95297: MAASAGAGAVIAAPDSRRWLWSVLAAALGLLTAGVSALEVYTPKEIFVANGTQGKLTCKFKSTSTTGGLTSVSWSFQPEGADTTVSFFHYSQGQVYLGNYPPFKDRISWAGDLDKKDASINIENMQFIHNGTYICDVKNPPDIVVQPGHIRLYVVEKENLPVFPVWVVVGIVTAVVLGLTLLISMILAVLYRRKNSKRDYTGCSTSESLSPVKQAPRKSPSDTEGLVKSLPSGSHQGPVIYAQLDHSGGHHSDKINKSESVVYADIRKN
UniProt Q70IA6: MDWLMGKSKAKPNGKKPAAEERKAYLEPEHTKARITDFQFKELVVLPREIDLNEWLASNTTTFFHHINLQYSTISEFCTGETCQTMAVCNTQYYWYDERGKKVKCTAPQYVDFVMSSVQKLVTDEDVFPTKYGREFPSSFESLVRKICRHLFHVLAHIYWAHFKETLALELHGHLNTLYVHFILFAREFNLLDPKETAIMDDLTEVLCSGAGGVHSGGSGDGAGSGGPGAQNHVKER
UniProt P40692: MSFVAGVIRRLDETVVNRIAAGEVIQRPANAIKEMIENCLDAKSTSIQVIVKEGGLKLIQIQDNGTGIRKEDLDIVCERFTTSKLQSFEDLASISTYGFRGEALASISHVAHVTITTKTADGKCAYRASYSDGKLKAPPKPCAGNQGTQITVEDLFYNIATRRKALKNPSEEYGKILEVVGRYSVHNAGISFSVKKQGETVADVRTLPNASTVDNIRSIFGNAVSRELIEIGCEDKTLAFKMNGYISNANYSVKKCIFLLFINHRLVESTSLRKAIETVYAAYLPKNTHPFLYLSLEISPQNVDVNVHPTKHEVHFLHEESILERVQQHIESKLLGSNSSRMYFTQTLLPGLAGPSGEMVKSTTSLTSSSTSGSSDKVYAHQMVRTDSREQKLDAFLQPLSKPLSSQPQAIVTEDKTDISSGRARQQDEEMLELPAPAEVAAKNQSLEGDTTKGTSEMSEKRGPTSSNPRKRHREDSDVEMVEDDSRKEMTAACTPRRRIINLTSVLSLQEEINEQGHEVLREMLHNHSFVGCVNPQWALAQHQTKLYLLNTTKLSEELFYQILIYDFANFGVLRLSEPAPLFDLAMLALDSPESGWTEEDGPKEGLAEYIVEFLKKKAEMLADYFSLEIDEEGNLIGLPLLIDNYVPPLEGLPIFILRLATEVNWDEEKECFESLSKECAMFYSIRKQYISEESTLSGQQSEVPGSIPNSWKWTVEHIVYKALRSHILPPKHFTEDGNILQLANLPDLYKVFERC
UniProt Q9Y6X9: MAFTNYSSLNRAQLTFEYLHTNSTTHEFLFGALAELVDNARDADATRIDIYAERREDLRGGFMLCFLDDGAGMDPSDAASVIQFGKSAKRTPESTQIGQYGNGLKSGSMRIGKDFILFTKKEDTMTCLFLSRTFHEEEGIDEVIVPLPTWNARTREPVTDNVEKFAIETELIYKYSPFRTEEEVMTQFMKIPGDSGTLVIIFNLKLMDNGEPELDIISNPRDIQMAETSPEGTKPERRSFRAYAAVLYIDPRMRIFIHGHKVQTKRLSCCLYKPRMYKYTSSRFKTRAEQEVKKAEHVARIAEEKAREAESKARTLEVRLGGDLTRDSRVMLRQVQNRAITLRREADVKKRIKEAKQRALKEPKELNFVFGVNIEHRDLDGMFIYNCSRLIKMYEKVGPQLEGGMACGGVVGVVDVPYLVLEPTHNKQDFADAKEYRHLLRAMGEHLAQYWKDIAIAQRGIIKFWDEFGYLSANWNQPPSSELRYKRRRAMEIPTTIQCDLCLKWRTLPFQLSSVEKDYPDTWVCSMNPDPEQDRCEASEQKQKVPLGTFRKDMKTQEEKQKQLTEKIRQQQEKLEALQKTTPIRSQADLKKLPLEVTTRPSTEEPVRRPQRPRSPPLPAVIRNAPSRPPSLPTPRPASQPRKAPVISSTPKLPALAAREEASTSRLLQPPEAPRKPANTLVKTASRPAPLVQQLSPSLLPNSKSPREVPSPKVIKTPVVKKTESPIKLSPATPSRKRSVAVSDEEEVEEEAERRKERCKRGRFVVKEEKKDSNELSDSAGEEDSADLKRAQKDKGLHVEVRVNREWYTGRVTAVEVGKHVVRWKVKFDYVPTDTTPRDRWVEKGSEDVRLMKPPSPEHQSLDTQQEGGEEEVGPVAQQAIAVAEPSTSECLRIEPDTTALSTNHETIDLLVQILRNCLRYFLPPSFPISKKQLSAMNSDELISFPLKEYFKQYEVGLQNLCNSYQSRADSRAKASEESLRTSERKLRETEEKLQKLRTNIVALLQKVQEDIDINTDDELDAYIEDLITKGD
UniProt Q6WCQ1: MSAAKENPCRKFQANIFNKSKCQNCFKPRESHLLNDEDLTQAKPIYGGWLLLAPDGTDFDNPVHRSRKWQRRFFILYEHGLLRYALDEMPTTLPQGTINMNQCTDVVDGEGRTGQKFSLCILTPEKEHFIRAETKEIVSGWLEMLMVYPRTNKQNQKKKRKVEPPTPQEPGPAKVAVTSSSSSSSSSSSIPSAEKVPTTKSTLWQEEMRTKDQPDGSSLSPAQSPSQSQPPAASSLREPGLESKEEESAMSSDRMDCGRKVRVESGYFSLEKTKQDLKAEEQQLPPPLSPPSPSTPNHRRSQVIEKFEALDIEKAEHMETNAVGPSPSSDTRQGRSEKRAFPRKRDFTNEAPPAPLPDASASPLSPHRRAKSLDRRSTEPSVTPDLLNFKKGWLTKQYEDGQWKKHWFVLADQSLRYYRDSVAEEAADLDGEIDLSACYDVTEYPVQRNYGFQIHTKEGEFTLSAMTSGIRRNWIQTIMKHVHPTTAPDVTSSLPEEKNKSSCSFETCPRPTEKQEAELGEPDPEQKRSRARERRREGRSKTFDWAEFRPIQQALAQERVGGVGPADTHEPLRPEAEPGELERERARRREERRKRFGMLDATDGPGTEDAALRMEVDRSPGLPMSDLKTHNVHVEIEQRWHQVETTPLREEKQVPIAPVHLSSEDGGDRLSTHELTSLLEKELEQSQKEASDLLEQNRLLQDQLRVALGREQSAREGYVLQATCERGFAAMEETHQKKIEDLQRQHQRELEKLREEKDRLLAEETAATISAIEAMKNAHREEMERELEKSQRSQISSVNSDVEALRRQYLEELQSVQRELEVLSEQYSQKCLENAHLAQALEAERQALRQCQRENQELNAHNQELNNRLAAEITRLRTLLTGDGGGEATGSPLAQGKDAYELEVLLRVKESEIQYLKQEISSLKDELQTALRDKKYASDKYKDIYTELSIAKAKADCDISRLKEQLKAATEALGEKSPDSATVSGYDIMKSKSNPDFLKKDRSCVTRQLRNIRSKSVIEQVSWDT
UniProt Q9NPA3, whole entry, looked up: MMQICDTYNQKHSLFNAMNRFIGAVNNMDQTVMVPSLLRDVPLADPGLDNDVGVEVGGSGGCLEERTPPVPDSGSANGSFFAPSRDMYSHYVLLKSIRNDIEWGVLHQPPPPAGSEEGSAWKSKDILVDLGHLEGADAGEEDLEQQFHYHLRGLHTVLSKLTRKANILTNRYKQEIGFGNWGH
UniProt Q99583: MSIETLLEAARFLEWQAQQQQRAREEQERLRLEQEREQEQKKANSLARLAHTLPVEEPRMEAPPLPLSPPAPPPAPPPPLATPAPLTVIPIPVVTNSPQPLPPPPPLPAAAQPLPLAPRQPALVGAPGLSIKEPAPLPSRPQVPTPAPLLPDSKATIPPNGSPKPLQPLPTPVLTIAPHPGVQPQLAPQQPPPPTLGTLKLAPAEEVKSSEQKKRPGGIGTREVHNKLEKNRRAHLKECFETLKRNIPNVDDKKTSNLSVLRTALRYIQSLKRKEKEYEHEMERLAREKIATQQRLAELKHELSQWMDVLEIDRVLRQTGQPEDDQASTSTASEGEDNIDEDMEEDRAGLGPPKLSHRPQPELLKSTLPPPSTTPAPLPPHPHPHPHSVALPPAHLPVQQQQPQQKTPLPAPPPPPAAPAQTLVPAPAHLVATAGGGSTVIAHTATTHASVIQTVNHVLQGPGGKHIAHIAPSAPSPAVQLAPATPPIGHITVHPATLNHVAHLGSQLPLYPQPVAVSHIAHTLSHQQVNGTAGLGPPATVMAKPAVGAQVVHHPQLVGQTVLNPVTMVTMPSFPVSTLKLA

Assay in all cases: log2 fold change, soluble protein after heating vs DMSO (PISA); higher = thermal stabilisation; K562 cells, 10 uM, 30 min; active = over 0.2 and 3.5 SD of the protein, either way, in both replicates (recomputed)
Compound in assay [1]: CC[C@@H]1C(=O)N(C)c2cnc(Nc3ccc(C(=O)NC4CCN(C)CC4)cc3OC)nc2N1C1CCCC1
The procedure, abridged:
(§1)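 Values are thermal stability changes relative to control samples and are taken from duplicates. They are stated as log2 fold changes. Before quantification by TMTpro 16plex LC-MS/MS with equalised channel sums, K562 cells at 2×10^6 cells/mL were treated with 10 μM compound for 30 min, heated in aliquots for 3 min across 48°C-58°C, pooled, extracted in PBS with 0.5% NP-40 at 4°C, and centrifuged at 21,000xg for 90 min to give the soluble supernatant.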

Compound in assay [2]: CN1C2=C(C3=C1C(=O)N(N=C3)CC4=CC(=CC=C4)N)SC(=C2)S(=O)C
The procedure, abridged:
as §1

Compound in a further assay: CN1CCN(CCOc2cc(OC3CCOCC3)c3c(Nc4c(Cl)ccc5c4OCO5)ncnc3c2)CC1 [saracatinib]
The procedure, abridged: as §1

Compound in the next assay: CN1CCN(c2nc(C3=C(c4c[nH]c5ccccc45)C(=O)NC3=O)c3ccccc3n2)CC1 [sotrastaurin]
The method in brief: as §1

Compound in the next assay: CNCc1ccc(-c2[nH]c3cc(F)cc4c3c2CCNC4=O)cc1 [rucaparib]
The method in brief:
as §1

Compound in assay [3]: CNc1nc(-c2ccc3c(N)n[nH]c3c2)cc(N2C[C@@H](C(=O)NC3CCCCC3)CC[C@H]2C)n1
The method in brief:
as §1

Compound in the next assay: COC(=O)N[C@@H](C)CNc1nccc(-c2cn(C(C)C)nc2-c2cc(Cl)cc(NS(C)(=O)=O)c2F)n1 [encorafenib]
The procedure, abridged: as §1

Compound in assay [4]: CC[C@H](C)N1C=C(C2=C(C=C(C=C21)C3=CN=C(C=C3)N4CCNCC4)C(=O)NCC5=C(C=C(NC5=O)C)C)C
The procedure, abridged: as §1

Compound in assay [5]: CCn1cc(-c2ccnc3[nH]c(-c4cccc(CN(C)C)c4)cc23)c(-c2ccc(NC(=O)N(C)C)cc2)n1
The method in brief:
as §1

Compound in assay [6]: CN(C)CC(=O)Nc1ccc2[nH]c(=O)c3ccccc3c2c1
The method in brief: as §1

Compound in assay [7]: CN1CCC(CNc2ccc3ncc(-c4cccc(OC(F)(F)F)c4)n3n2)CC1
The procedure, abridged: as §1

Compound in assay [8]: CNC(=O)C1=CC=CC=C1NC2=NC(=NC=C2Cl)NC3=C(C=C(C=C3)N4CCOCC4)OC
The method in brief:
as §1

Compound in a further assay: CNC(=O)c1ccc(Nc2ncc(C(F)(F)F)c(NCc3nccnc3N(C)S(C)(=O)=O)n2)cc1 [defactinib]
The procedure, abridged: as §1

Compound in assay [9]: COC(=O)[C@H](CCSC)NC(=O)C1=C(C=C(C=C1)NC[C@H](CS)N)C2=CC=CC=C2
The procedure, abridged: as §1

Compound in assay [10]: CCn1c(C(=O)N(C2CC2)C2CC2)cc2c3c(ncn3C)c(Nc3cc(C)n(C)n3)nc21
The procedure, abridged:
as §1

Compound in another assay: CN(CCOC1=CC=C(C=C1)C[C@H]2C(=O)NC(=O)S2)C3=CC=CC=N3 (racemic) [rosiglitazone]
The procedure, abridged: as §1

Compound in the next assay: CC[C@@H]1C(=O)N(C)c2cnc(Nc3ccc(C(=O)N[C@H]4CC[C@H](N5CCN(CC6CC6)CC5)CC4)cc3OC)nc2N1C(C)C [volasertib]
The method in brief: as §1

Compound in a further assay: CC[C@H](C)[C@@H](C(=O)N[C@@H]([C@@H](C)O)C(=O)N[C@@H](CC(C)C)C(=O)[C@]1(CO1)C)NC(=O)[C@H]([C@@H](C)CC)N(C)C(=O)C [epoxomicin]
The method in brief: as §1

Compound in the next assay: CN1CC[C@H](c2c(O)cc(O)c3c(=O)cc(-c4ccccc4Cl)oc23)[C@H](O)C1 [alvocidib]
The method in brief: as §1

Compound in another assay: CN1CCc2c(c3ccccc3n2Cc2ccc(C(=O)NO)cc2)C1 [Tubastatin A]
The procedure, abridged: as §1

The list shows a part of the results.

As for MRPL52 (UniProt Q86TS9), the log2 fold change is inactive: 0.099 in assay [1]; inactive: -0.308 in assay [2]; inactive: -0.165 with saracatinib; inactive: 0.061 in the assay with sotrastaurin; inactive: 0.064 in the assay with rucaparib; inactive: -0.104 in assay [3]. In addition, the log2 fold change in the assay with encorafenib is inactive: 0.043.
Take MITF (UniProt O75030): the log2 fold change in [1] is inactive: 0.014; in [4], inactive: 0.02; in assay [5], inactive: 0.044; in [6], inactive: -0.231; in assay [7], inactive: -0.046; with sotrastaurin, inactive: -0.08. For the same target, the log2 fold change is inactive: 0.034 in assay [8]; inactive: 0.111 with defactinib; inactive: -0.186 in the assay with rucaparib; inactive: -0.058 with encorafenib; inactive: 0.064 in assay [9].
MRAS (UniProt O14807): the log2 fold change is inactive: 0.289 in [1]; inactive: -0.02 in assay [4]; inactive: 0.014 in assay [10]; inactive: -0.013 in assay [5]; inactive: -0.029 with rosiglitazone; inactive: -0.023 in [7]. Moreover, the log2 fold change in [8] is inactive: -0.131; with rucaparib it was inactive: -0.008; with encorafenib, inactive: -0.014.
On to MICAL1 isoform 4 (UniProt Q8TDZ2), for which the log2 fold change with volasertib is inactive: -0.52; in assay [4], inactive: 0.107; with epoxomicin, inactive: 0.239; in assay [10], inactive: 0.014; in assay [6] it was inactive: 0.005; with sotrastaurin, inactive: -0.104. Moreover, the log2 fold change in the assay with alvocidib was inactive: -0.044; in [8], inactive: 0.018; with defactinib, inactive: -0.189; in [9], inactive: 0.082.
For MKRN1 (UniProt Q9UHC7), the log2 fold change in the assay with volasertib was inactive: 0.005; in assay [4] it was inactive: -0.079; with epoxomicin it was inactive: -0.142; in [10], inactive: -0.092; in [5], inactive: 0.056; in [6] it was inactive: -0.056. The log2 fold change was inactive: 0.072 with rosiglitazone; inactive: 0.035 in [7]; inactive: 0.103 in the assay with alvocidib; inactive: 0.089 with Tubastatin A; inactive: 0.095 in assay [8]; inactive: 0.067 with defactinib. Also, in assay [9], the log2 fold change was inactive: 0.043.
MMAA (UniProt Q8IVH4): the log2 fold change with volasertib was inactive: 0.168; with epoxomicin, inactive: 0.09; in assay [10] it was inactive: -0.088; in assay [2], inactive: 0.01; with saracatinib it was inactive: 0.039; with sotrastaurin, inactive: 0.013. Further, the log2 fold change with alvocidib was inactive: -0.04; in [8], inactive: -0.138; in [3], inactive: -0.019.
As to MPZL1 isoform 3 (UniProt O95297), the log2 fold change was inactive: -0.145 in [2]; inactive: -0.226 in the assay with saracatinib; inactive: -0.076 with alvocidib; inactive: 0.032 in the assay with Tubastatin A; inactive: 0.004 in assay [3].
Consider MOB2 isoform 3 (UniProt Q70IA6), for which the log2 fold change with volasertib was inactive: -0.231; in [4], inactive: 0.207; in the assay with epoxomicin, inactive: -0.193; in [5], inactive: -0.029; in assay [7] it was inactive: -0.103; with Tubastatin A it was inactive: -0.073. Moreover, the log2 fold change in assay [8] was inactive: -0.123.
MLH1 (UniProt P40692): the log2 fold change is inactive: -0.385 with volasertib; inactive: 0.11 in the assay with epoxomicin; inactive: 0.073 in assay [5]; inactive: 0.268 in assay [2]; inactive: 0.112 in assay [7]; inactive: -0.103 with saracatinib. Moreover, the figures for the log2 fold change (with Tubastatin A; in assay [3]) were inactive: 0.158 and inactive: -0.168, respectively.
In the case of MMRN1 (UniProt Q13201), the log2 fold change in [2] was inactive: -0.256; in the assay with saracatinib, inactive: -0.038; with sotrastaurin, inactive: 0.02; in [3], inactive: -0.014.
Consider MORC2 (UniProt Q9Y6X9), for which the figures for the log2 fold change (in the assay with volasertib; in the assay with epoxomicin; in assay [8]) were active: -0.8, inactive: 0.118 and inactive: 0.124, respectively.
In the case of MPRIP isoform 2 (UniProt Q6WCQ1), the log2 fold change with volasertib was inactive: -0.209; in [4], inactive: 0.047; with epoxomicin, inactive: 0.029; in [10] it was inactive: 0.021; in assay [5] it was inactive: 0.046; in [6], inactive: -0.011. Further, the log2 fold change with rosiglitazone was inactive: 0.085; in assay [2], inactive: -0.046; in assay [7], inactive: -0.134; with saracatinib it was inactive: 0.036; with sotrastaurin, inactive: -0.014; with alvocidib, inactive: -0.013. Besides, the log2 fold change with Tubastatin A was inactive: 0.095; in assay [8], inactive: -0.099; with defactinib, inactive: 0.037; in [3], inactive: 0.014; in assay [9], inactive: 0.02.
Turning to MID1IP1 (UniProt Q9NPA3), the log2 fold change is inactive: -0.222 with volasertib; inactive: 0.125 in [4]; inactive: -0.163 in the assay with epoxomicin; inactive: 0.012 in assay [10]; inactive: -0.107 in assay [5]; inactive: 0.051 in [6]. Further, the log2 fold change with rosiglitazone is inactive: 0.11; in [2] it was inactive: 0.022; in assay [7] it was inactive: -0.026; with saracatinib, inactive: -0.095; with sotrastaurin, inactive: -0.155; with Tubastatin A, inactive: 0.248. For the same target, the log2 fold change in assay [8] was inactive: 0.047; with defactinib, inactive: -0.212; in assay [3] it was inactive: -0.059; in assay [9] it was inactive: -0.126.
On to MNT (UniProt Q99583), for which the log2 fold change is inactive: 0.091 in the assay with volasertib; inactive: -0.131 in assay [4]; inactive: 0.006 with epoxomicin; inactive: 0.029 in [5]; inactive: -0.088 in assay [6]; inactive: -0.076 in the assay with rosiglitazone. The log2 fold change in [7] is inactive: -0.104; with sotrastaurin it was inactive: 0.085; in the assay with alvocidib, inactive: 0.048; in the assay with Tubastatin A it was inactive: 0.13; with defactinib, inactive: -0.095; in assay [9], inactive: 0.076.
